Results are given in words; binding and its absence hold for the method and conditions named. Some binding calls cover weakened binding; strength is not graded here. Where a sequence is shown, tags or fusion partners need not be part of it.
Target: free tagged factor (16 kD form) released from the cofactor in U2OS-pESY1c conditioned medium by high salt and ultrafiltration (chicken (Gallus gallus))
Assay: SDS gel and Western blot, self-association (dimer band)

- binding: binds
B1: free tagged factor (16 kD form) released from the cofactor in U2OS-pESY1c conditioned medium by high salt and ultrafiltration (protein)
chain: EPLAVVDLRPQSSVKVEVHFQDKVEEMSIRLDQTVAELKKHLKTVVQLSTSNMLLFYLDQEAPFGPEEMKYSSRALHSYGIRDGDKIYVEPRMKSNSADIQHSGGRSSLEGPRFEQKLISEEDLNMHTGHHHHHH

Reference: US20160251386A1 (published 2016)
